Data as given in PubChem BioAssay AID686943 (Drosophila RNAi Screening Center, 2013)
Screen: 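Knockdowns that increase or decrease active ERK after insulin receptor stimulation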 (primary screen). Cell system: Drosophila S2R+ haemocyte-like cells expressing YFP-tagged ERK (Rolled). Reagent: long dsRNA against Drosophila genes. Conditions: insulin stimulation versus unstimulated cells; dose and duration not given. Measured: 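Antibody staining for doubly phosphorylated ERK divided by ERK-YFP signal, as plate z-scores, in insulin-treated and untreated cells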. Reading the numbers: replicate 1, z-score of dpERK with insulin: higher = more active ERK per ERK-YFP after insulin.
In all, the deposit lists about 23,000 reagents; this is a random part of those that have a named target and a result. 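Extra replicates exist only for a retested subset of genes; insulin dose and duration not given; both raised and lowered dpERK matter.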 Reagents against one gene are numbered here. Names joined by + are all predicted targets of the reagent. Not all columns of the deposit are shown. Not given: the amount of reagent, the time to read-out.

For CG8003 the deposit lists replicate 1, z-score of dpERK with insulin -0.34.
Knock-down of ATP8A #1 resulted in: replicate 1, z-score of dpERK with insulin -0.46.
Silencing of ATP8A #2 came out at: replicate 1, z-score of dpERK with insulin 0.29.
Knock-down of ATP8A #3 resulted in: replicate 1, z-score of dpERK with insulin -0.99.
For Dredd, the entry reads replicate 1, z-score of dpERK with insulin -0.35.
For CG12848, the values are replicate 1, z-score of dpERK with insulin -0.1.
After knock-down of DppIII, the screen gave replicate 1, z-score of dpERK with insulin 0.82.
Silencing of Lsp1alpha gave: replicate 1, z-score of dpERK with insulin -0.24.
Silencing of CG7130 came out at: replicate 1, z-score of dpERK with insulin 0.65.
Silencing of Coprox gave: replicate 1, z-score of dpERK with insulin 0.61.
Silencing of TotZ came out at: replicate 1, z-score of dpERK with insulin -1.01.
Depletion of Cap-D2 gave: replicate 1, z-score of dpERK with insulin -0.28.
Depletion of sog resulted in: replicate 1, z-score of dpERK with insulin 0.22.
For Osi18, the values are replicate 1, z-score of dpERK with insulin -0.2.
After knock-down of nSMase the results were replicate 1, z-score of dpERK with insulin 0.19.
Rhp showed replicate 1, z-score of dpERK with insulin -0.27.
Against nompB #1 the deposit lists replicate 1, z-score of dpERK with insulin -1.11.
Against nompB #2, the entry reads replicate 1, z-score of dpERK with insulin 0.55.
CR10032 scored replicate 1, z-score of dpERK with insulin 0.49.
Depletion of Ranbp16 + Lcch3 resulted in: replicate 1, z-score of dpERK with insulin 0.01.
Against Usp12-46, the entry reads replicate 1, z-score of dpERK with insulin -0.01.
Against Ae2 #1, the values are replicate 1, z-score of dpERK with insulin -2.68.
Against Ae2 #2 the deposit lists replicate 1, z-score of dpERK with insulin -0.09.
Ced-12 gave replicate 1, z-score of dpERK with insulin -0.26.
ScpX showed replicate 1, z-score of dpERK with insulin 0.71.
CG33468 scored replicate 1, z-score of dpERK with insulin -0.1.
Silencing of mRpL36 gave: replicate 1, z-score of dpERK with insulin -0.03.
LManI scored replicate 1, z-score of dpERK with insulin 0.85.
After knock-down of Tps1, the screen gave replicate 1, z-score of dpERK with insulin 0.21.
Against Usp32, the values are replicate 1, z-score of dpERK with insulin 1.2.
CG6296 scored replicate 1, z-score of dpERK with insulin -0.02.

Reprinted from the listing for reference:
nompB #1 → replicate 1, z-score of dpERK with insulin = -1.11
nompB #2 → replicate 1, z-score of dpERK with insulin = 0.55
CR10032 → replicate 1, z-score of dpERK with insulin = 0.49
